Source: PMC10082800
No constants are given. Whether binding was seen depends on the method and setting. In cells and extracts the contact can be indirect. Some results given as binding are weak or reduced against the parent protein; the word gives no strength. For some assays here: Tags and fused reporters may be left off the sequences shown.

By UniProt entry, the sequences of proteins in these tests, tags left out.
UniProt P51617: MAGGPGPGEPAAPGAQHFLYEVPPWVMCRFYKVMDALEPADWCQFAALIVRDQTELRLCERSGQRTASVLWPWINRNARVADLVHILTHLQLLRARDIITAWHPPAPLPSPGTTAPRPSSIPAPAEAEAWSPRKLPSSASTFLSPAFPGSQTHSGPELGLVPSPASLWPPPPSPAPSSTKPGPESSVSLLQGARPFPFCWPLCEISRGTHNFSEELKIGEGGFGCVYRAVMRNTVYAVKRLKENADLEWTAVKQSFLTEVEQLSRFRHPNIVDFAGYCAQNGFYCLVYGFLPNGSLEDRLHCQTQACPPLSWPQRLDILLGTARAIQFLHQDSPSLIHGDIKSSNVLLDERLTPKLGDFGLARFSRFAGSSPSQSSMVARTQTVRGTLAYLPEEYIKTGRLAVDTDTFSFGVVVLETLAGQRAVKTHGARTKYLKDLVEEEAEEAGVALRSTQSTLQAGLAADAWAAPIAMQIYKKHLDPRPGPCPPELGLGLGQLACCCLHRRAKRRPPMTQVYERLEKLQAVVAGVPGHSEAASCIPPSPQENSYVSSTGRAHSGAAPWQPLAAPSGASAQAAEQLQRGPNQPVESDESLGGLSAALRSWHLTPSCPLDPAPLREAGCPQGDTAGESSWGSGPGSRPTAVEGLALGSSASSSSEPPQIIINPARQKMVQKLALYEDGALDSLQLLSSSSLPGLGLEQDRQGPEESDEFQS

Assays:
[1] = biological target: T1, Myc-PRDX1 (human) (UniProt Q06830); assay: co-IP; tagged proteins transiently co-transfected into 293T cells; for HECTD3 constructs IP with anti-Myc antibody; Western blotting
T1 sequence: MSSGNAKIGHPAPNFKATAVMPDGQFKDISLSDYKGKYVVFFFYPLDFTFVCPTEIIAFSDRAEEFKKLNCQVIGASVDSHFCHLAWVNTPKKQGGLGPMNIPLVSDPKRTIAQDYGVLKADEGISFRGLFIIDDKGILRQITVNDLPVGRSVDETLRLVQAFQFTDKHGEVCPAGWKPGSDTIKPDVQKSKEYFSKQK

[2] = biological target: Interleukin-1 receptor associated kinase 1 (IRAK1), endogenous (human (endogenous in U251)) (UniProt P51617); assay: co-IP; endogenous proteins, U251 cell lysate; Pierce Crosslink Magnetic IP/Co-IP kit or Protein A/G PLUS-Agarose; Western blotting
[3] = biological target: T2, Peroxiredoxin 1 (PRDX1), endogenous (human (endogenous in U251)) (UniProt Q06830); assay: as above
T2 sequence: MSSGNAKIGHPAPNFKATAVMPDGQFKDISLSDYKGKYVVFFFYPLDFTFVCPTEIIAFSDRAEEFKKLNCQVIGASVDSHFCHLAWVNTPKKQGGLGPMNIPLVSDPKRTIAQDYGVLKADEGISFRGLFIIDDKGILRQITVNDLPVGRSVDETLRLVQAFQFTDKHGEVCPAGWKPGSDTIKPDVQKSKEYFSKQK

B1: Flag-HECT domain of HECTD3 (domain or fragment, UniProt Q5T447 512-857)
chain: YEKPLDYRWPMRYDQWWECKFIAEGIIDQGGGFRDSLADMSEELCPSSADTPVPLPFFVRTANQGNGTGEARDMYVPNPSCRDFAKYEWIGQLMGAALRGKEFLVLALPGFVWKQLSGEEVSWSKDFPAVDSVLVKLLEVMEGMDKETFEFKFGKELTFTTVLSDQQVVELIPGGAGIVVGYGDRSRFIQLVQKARLEESKEQVAAMQAGLLKVVPQAVLDLLTWQELEKKVCGDPEVTVDALRKLTRFEDFEPSDSRVQYFWEALNNFTNEDRSRFLRFVTGRSRLPARIYIYPDKLGYETTDALPESSTCSSTLFLPHYASAKVCEEKLRYAAYNCVAIDTDMS
B1 was tested, and the binding [1] was “binds”.

B2: Peroxiredoxin 1 (PRDX1), endogenous (protein, UniProt Q06830 1-199)
chain: MSSGNAKIGHPAPNFKATAVMPDGQFKDISLSDYKGKYVVFFFYPLDFTFVCPTEIIAFSDRAEEFKKLNCQVIGASVDSHFCHLAWVNTPKKQGGLGPMNIPLVSDPKRTIAQDYGVLKADEGISFRGLFIIDDKGILRQITVNDLPVGRSVDETLRLVQAFQFTDKHGEVCPAGWKPGSDTIKPDVQKSKEYFSKQK
B2 was tested, and the binding [2] was “binds”.

B3: E3 ubiquitin ligase HECTD3, endogenous (protein, UniProt Q5T447 1-861)
chain: MAGPGPGAVLESPRQLLGRVRFLAEAARSLRAGRPLPAALAFVPREVLYKLYKDPAGPSRVLLPVWEAEGLGLRVGAAGPAPGTGSGPLRAARDSIELRRGACVRTTGEELCNGHGLWVKLTKEQLAEHLGDCGLQEGWLLVCRPAEGGARLVPIDTPNHLQRQQQLFGVDYRPVLRWEQVVDLTYSHRLGSRPQPAEAYAEAVQRLLYVPPTWTYECDEDLIHFLYDHLGKEDENLGSVKQYVESIDVSSYTEEFNVSCLTDSNADTYWESDGSQCQHWVRLTMKKGTIVKKLLLTVDTTDDNFMPKRVVVYGGEGDNLKKLSDVSIDETLIGDVCVLEDMTVHLPIIEIRIVECRDDGIDVRLRGVKIKSSRQRELGLNADLFQPTSLVRYPRLEGTDPEVLYRRAVLLQRFIKILDSVLHHLVPAWDHTLGTFSEIKQVKQFLLLSRQRPGLVAQCLRDSESSKPSFMPRLYINRRLAMEHRACPSRDPACKNAVFTQVYEGLKPSDKYEKPLDYRWPMRYDQWWECKFIAEGIIDQGGGFRDSLADMSEELCPSSADTPVPLPFFVRTANQGNGTGEARDMYVPNPSCRDFAKYEWIGQLMGAALRGKEFLVLALPGFVWKQLSGEEVSWSKDFPAVDSVLVKLLEVMEGMDKETFEFKFGKELTFTTVLSDQQVVELIPGGAGIVVGYGDRSRFIQLVQKARLEESKEQVAAMQAGLLKVVPQAVLDLLTWQELEKKVCGDPEVTVDALRKLTRFEDFEPSDSRVQYFWEALNNFTNEDRSRFLRFVTGRSRLPARIYIYPDKLGYETTDALPESSTCSSTLFLPHYASAKVCEEKLRYAAYNCVAIDTDMSPWEE
B3 was tested, and the binding [2] was “binds” and the binding [3] was “binds”.

B4: full-length Flag-HECTD3 (protein, UniProt Q5T447 1-861)
chain: MAGPGPGAVLESPRQLLGRVRFLAEAARSLRAGRPLPAALAFVPREVLYKLYKDPAGPSRVLLPVWEAEGLGLRVGAAGPAPGTGSGPLRAARDSIELRRGACVRTTGEELCNGHGLWVKLTKEQLAEHLGDCGLQEGWLLVCRPAEGGARLVPIDTPNHLQRQQQLFGVDYRPVLRWEQVVDLTYSHRLGSRPQPAEAYAEAVQRLLYVPPTWTYECDEDLIHFLYDHLGKEDENLGSVKQYVESIDVSSYTEEFNVSCLTDSNADTYWESDGSQCQHWVRLTMKKGTIVKKLLLTVDTTDDNFMPKRVVVYGGEGDNLKKLSDVSIDETLIGDVCVLEDMTVHLPIIEIRIVECRDDGIDVRLRGVKIKSSRQRELGLNADLFQPTSLVRYPRLEGTDPEVLYRRAVLLQRFIKILDSVLHHLVPAWDHTLGTFSEIKQVKQFLLLSRQRPGLVAQCLRDSESSKPSFMPRLYINRRLAMEHRACPSRDPACKNAVFTQVYEGLKPSDKYEKPLDYRWPMRYDQWWECKFIAEGIIDQGGGFRDSLADMSEELCPSSADTPVPLPFFVRTANQGNGTGEARDMYVPNPSCRDFAKYEWIGQLMGAALRGKEFLVLALPGFVWKQLSGEEVSWSKDFPAVDSVLVKLLEVMEGMDKETFEFKFGKELTFTTVLSDQQVVELIPGGAGIVVGYGDRSRFIQLVQKARLEESKEQVAAMQAGLLKVVPQAVLDLLTWQELEKKVCGDPEVTVDALRKLTRFEDFEPSDSRVQYFWEALNNFTNEDRSRFLRFVTGRSRLPARIYIYPDKLGYETTDALPESSTCSSTLFLPHYASAKVCEEKLRYAAYNCVAIDTDMSPWEE
For B4, the binding [1] was “binds”.
